Results published in PubChem BioAssay AID2685 (National Center for Advancing Translational Sciences (NCATS), 2010).
Some of the results follow. The main result of the screen is listed elsewhere. These columns were measured beside it and carry no call. Most of these compounds were active or inconclusive in the main read-out, so they are no random draw. The note in brackets gives the kind of curve behind each potency; many fits are weak.

Experiment: qHTS Assay for Lipid Storage Modulators in Drosophila S3 Cells;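 as to cell number change: cells counted by Cell Tracker Red CMTPX staining in the red channel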
Details: BODIPY lipid droplet fluorescence, 18-24 h; for cell number change: measured here: cell count max response, cells fed with added oleic acid
How it was run: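 Laser-scanning cytometry quantifies lipid droplet accumulation (500–530 nm total intensity; droplet/cell object ratio) in oleic acid-fed (400 uM added) Drosophila S3 cells treated with a concentration series. 20 uM Triacsin C defined 100% inhibition.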

[1] = measured here: cell number channel AC50, cells fed with added oleic acid
[2] = measured here: lipid fluorescence (Fed channel) AC50, cells fed with added oleic acid

Structure (SMILES)	cell number change [%]	AC50 [1]	AC50 [2]
CCOc1cc(/C=N/NC(=O)CSc2nncn2C)ccc1OC(=O)c1ccc(Cl)cc1	-63	9.2 nM [falling, full curve]	14600 nM [falling, partial curve]
CCOC(=O)c1[nH]c2c(c1-c1ccccc1)C(=O)CC(c1ccc(Cl)cc1)C2 (centres undefined)	1.82		366 nM [rising, single point]
CC(CO)Nc1nc(SCc2ccccc2)nc2sc3c(c12)CCC3 (centres undefined)		6510 nM [rising, partial curve, poor fit]	6510 nM [rising, single point]
O=C(COC(=O)c1c[nH]c2ccccc12)Nc1cccc(F)c1	-4.02		29100 nM [rising, single point]
CC(=O)c1sc(-c2c(C)nc3sccn23)nc1C1CCCC1	6.84		
CC(=O)Nc1ccc(SCC(=O)NC(=O)c2ccccc2Br)cc1	2.71		20600 nM [rising, single point]
O=C(COC(=O)c1ccc(Br)o1)NCC1CCCO1 (centres undefined)	-15.3	1640 nM [falling, partial curve, poor fit]	6510 nM [falling, single point]
CC(O)CNC(=S)Nc1ccccc1 (centres undefined)	9.59		116 nM [falling, full curve, poor fit]
CCOC(=O)CN(Cc1ccccc1)C(=O)OC(C)(C)C	9.88		
COc1ccc(C(=O)NC2CCCCC2)cc1S(=O)(=O)N1CCOCC1	3.78		6510 nM [falling, single point]
CC(=NCCCn1ccnc1)c1c(O)n(Cc2ccccc2)c(=O)[nH]c1=O		6510 nM [rising, single point]	2310 nM [rising, partial curve]
CCOc1cc(/C=N/NC(=O)CN2CCCCC2)ccc1OCc1ccc(Cl)cc1	20.5		5800 nM [rising, full curve]
O=C(NCCN1CCOCC1)c1ccccc1N1C(=O)[C@@H]2Cc3c([nH]c4ccccc34)C(c3ccc(F)cc3)N2C1=O (some centres undefined)	-10.7		130 nM [rising, full curve, poor fit]
COc1ccc(NC(=S)N(CCc2c(C)[nH]c3ccc(C)cc23)Cc2cccnc2)cc1	5.84		130 nM [rising, full curve]
CCc1nnc(NC(=O)C2CCCN(C(=O)c3ccc(Cl)cc3)C2)s1 (centres undefined)	-0.417		16400 nM [falling, single point]
Cc1onc(-c2ccccc2)c1C(=O)N/N=C/c1c(F)cccc1Cl	-10.6		
CC(C)N1CC(C(=O)Nc2ccc(F)c(Cl)c2)CC1=O (centres undefined)	8.5		3260 nM [rising, single point]
Cc1ccc(NC(=O)CCn2cnc3ccccc3c2=O)c(C)c1	27.1		5.17 nM [rising, full curve, poor fit]
CC(C)OC(=O)C(C#N)c1nc2ccccc2nc1N1CCN(Cc2ccc3c(c2)OCO3)CC1 (centres undefined)	-1.98		
CCOC(=O)c1cccc(NC(=O)Cn2c(CC(=O)N3CCCC3)nc3ccccc32)c1	4.03		6510 nM [rising, single point]

Structure (SMILES)	cell number change [%]	AC50 [1]	AC50 [2]
CS(=O)(=O)N1CCC(C(=O)NCc2ccccc2)CC1	-11.8		517 nM [rising, single point]
COc1cc(C(=O)OCC(=O)N(C)c2ccccc2)cc(OC)c1OC	-2.56		
O=C1NC2(CCCCC2)C(=O)N1CC(=O)N(Cc1ccccc1)c1ccccc1	35.6		
CCn1c2ccccc2c2nnc(SCc3ccccc3)nc21	5.52		1640 nM [rising, full curve, poor fit]
COCCCNC(=O)c1c(N)n(-c2cccc(S(N)(=O)=O)c2)c2nc3ccccc3nc12	163	11600 nM [rising, partial curve]	
O=C(CN1C(=O)C2C3CCC(C3)C2C1=O)NCc1ccco1 (centres undefined)	-7.57		6510 nM [falling, single point]
O=C1NN=COc2ccccc21	-9.85		517 nM [falling, full curve]
COC(=O)c1ccccc1-c1ccc(C(c2c(C)[nH][nH]c2=O)c2c(C)[nH][nH]c2=O)o1	-35.2	18400 nM [falling, single point]	23100 nM [falling, single point]
CCN(CC)S(=O)(=O)c1ccc(N2CCOCC2)c(NC(=O)c2ccc3ccccc3c2)c1	5.29		1460 nM [rising, partial curve, poor fit]
Cc1cc(S(=O)(=O)n2cnc3cc([N+](=O)[O-])ccc32)ccc1Cl	-4.93		
CCNC(=O)/C(=C\c1ccccc1)NC(=O)/C=C/c1ccccc1	-33.3	920 nM [falling, full curve, poor fit]	1640 nM [falling, full curve]
Cc1cc(C)c(C#N)c(SCc2cn3c(C)cccc3n2)n1	103		
Cc1sc(C(C2C(=O)CC(C)(C)CC2=O)C2C(=O)CC(C)(C)CC2=O)cc1[N+](=O)[O-]	-49.2	29100 nM [falling, single point]	
NC(=O)C1CCN(C(=O)CCc2nc3sc4c(c3c(=O)[nH]2)CCCC4)CC1	-100	3660 nM [falling, partial curve]	
CCOc1ccccc1C(=O)Nc1ccc2c(c1)C(=O)NC2=O	-3.52		1300 nM [falling, full curve]
CCC(=O)N1C(=O)C2(Nc3ccccc3N2)c2ccccc21	13.5	580 nM [falling, single point]	
O=C(Nc1ccc(Nc2ccccc2)cc1)N1CCOCC1			651 nM [falling, single point]
CC(=O)Oc1ccc(NC(=O)Cc2ccccc2)cc1	-12.7		
Cc1cccc(CS(=O)(=O)c2cn(CC(=O)N3CCOCC3)c3ccccc23)c1	14.2	146 nM [rising, partial curve, poor fit]	
COc1ccc(/C=C2\Sc3ccc(C(=O)NCCCN4CCCC4)cc3N(C)C2=O)cc1OC	0.0824		

Looked up one by one from the list above:
Structure (SMILES)	cell number change [%]	AC50 [1]	AC50 [2]
CCN(CC)S(=O)(=O)c1ccc(N2CCOCC2)c(NC(=O)c2ccc3ccccc3c2)c1	5.29		1460 nM [rising, partial curve, poor fit]
COCCCNC(=O)c1c(N)n(-c2cccc(S(N)(=O)=O)c2)c2nc3ccccc3nc12	163	11600 nM [rising, partial curve]	
O=C1NC2(CCCCC2)C(=O)N1CC(=O)N(Cc1ccccc1)c1ccccc1	35.6		

Following part

Structure (SMILES)	cell number change [%]	AC50 [1]	AC50 [2]
CCNc1nc2cccnc2s1	7.87	4.61 nM [falling, full curve, poor fit]	4.61 nM [falling, full curve, poor fit]
Cc1ccc(S(=O)(=O)N2[C@@H](c3cccc(Cl)c3)C(C(=O)O)=CC[C@H]2c2ccc(Cl)c(Cl)c2)cc1	-0.858	731 nM [rising, full curve, poor fit]	920 nM [rising, partial curve, poor fit]
CC(C)N(CCNC(=O)c1ccc(OCC2CCCO2)cc1)C(C)C (centres undefined)	-14.3		6510 nM [falling, single point]
O=C(CSc1nnc(-c2cccs2)n1Cc1ccco1)Nc1ccc2c(c1)OCO2	-11.1		517 nM [rising, partial curve]
COc1ccccc1-n1cnnc1SCC(=O)NCc1cccs1	53.8	920 nM [rising, partial curve]	
O=C(Nc1nc2ccc(Cl)cc2s1)c1ccco1	34.8	29100 nM [rising, single point]	6510 nM [falling, single point]
OCC[C@@H]1C[C@H](O)[C@@H](O)[C@@]2(Cc3ccccc3CO2)O1	14.4		
COc1ccc(S(=O)(=O)NC2CCCCCC2)cc1C(N)=O			2590 nM [rising, single point]
O=C(NNC(=O)c1ccc([N+](=O)[O-])cc1)c1ccncc1	-27.5	4610 nM [falling, full curve, poor fit]	29100 nM [falling, single point]
COc1ccc(C2CC(C(F)(F)F)n3nc(C(=O)O)c(Cl)c3N2)cc1OC (centres undefined)	7.94	731 nM [rising, partial curve, poor fit]	651 nM [rising, partial curve, poor fit]
Cc1ccc(C(=O)COC(=O)CNC(=O)c2cccs2)cc1	-44.8	51.7 nM [falling, partial curve, poor fit]	58 nM [falling, full curve, poor fit]
C[N+]1(C)CC[C@H](OC(=O)[C@@](O)(c2ccccc2)C2CCCC2)C1	-31	164 nM [falling, full curve, poor fit]	103 nM [falling, full curve, poor fit]
COC(=O)c1[nH]c2ccc(C)cc2c1NC(=O)CN1CCN(c2ccccc2)CC1	-45.9	18400 nM [falling, partial curve, poor fit]	
O=C(NCc1ccco1)c1ccc(CS(=O)Cc2ccc(Cl)cc2)o1 (centres undefined)			6510 nM [falling, single point]
CC(C)N(Cc1ccccc1)CC(O)COc1ccc(S(=O)(=O)N2CCOCC2)cc1Cl (centres undefined)	-8.25		4.61 nM [rising, full curve, poor fit]
CN1C(=O)CSc2ccc(NC(=O)NCc3ccc(F)cc3)cc21	-10		4.61 nM [falling, full curve, poor fit]
CCCCN(C(=O)CC1CCCC1)c1c(N)n(CCC)c(=O)[nH]c1=O	-19.8		
CCOC(=O)c1c(-c2ccc(C)o2)csc1NC(=S)NC(=O)c1cccs1	15.1		731 nM [rising, partial curve]
CCOc1ccc2c(c1)-c1c(ssc1=S)C(C)(C)N2C	-88.8		103 nM [rising, full curve, poor fit]
